These are yes or no findings as the source states them, for the method shown. Sequences can lack the tags named with a protein.
Target: Mtw1c/Ndc80c-Flag (MN subcomplexes) (S. cerevisiae) (UniProt P40460)
Assay: pull-down; KMN or its subcomplexes from Sf9 cells immobilised on anti-Flag M2 beads; 100 µl of 2 µM Ipl1/Sli15 added to ~20 µl beads; 4 °C, 6 h; 25 mM HEPES pH 7.4, 200 mM NaCl, 1 mM MgCl2, 2.5% glycerol, 0.01% Tween-20; eluted with 3xFlag peptide; Coomassie and anti-His blot; also done with prolonged incubation times (Fig. EV3A); both purified

Sequences of proteins named here, by UniProt entry; tags and fusion partners are left off. A change or cut given only in a name is not applied to a line headed by its entry.
UniProt P40460: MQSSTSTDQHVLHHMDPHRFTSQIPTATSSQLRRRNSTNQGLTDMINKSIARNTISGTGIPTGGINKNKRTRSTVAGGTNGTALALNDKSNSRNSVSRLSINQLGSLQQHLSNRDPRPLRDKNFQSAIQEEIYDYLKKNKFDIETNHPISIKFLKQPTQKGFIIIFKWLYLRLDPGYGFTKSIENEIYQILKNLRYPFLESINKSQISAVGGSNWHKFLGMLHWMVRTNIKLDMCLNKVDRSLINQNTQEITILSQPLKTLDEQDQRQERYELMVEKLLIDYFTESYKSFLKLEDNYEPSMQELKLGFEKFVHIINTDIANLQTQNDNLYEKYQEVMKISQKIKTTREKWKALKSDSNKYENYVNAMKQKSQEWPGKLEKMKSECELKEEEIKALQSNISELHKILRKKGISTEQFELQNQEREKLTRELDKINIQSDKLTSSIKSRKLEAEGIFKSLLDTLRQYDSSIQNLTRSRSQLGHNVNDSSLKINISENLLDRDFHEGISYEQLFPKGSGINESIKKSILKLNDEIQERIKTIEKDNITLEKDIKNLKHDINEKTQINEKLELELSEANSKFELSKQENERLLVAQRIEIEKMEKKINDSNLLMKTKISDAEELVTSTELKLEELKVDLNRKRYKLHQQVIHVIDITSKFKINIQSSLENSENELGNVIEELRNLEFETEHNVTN

binding: no binding (tested: 2 µM)
B1: Ipl1/6xHis-Sli15 complex (wild type, untreated) (complex, S. cerevisiae)
chain 1: MQRNSLVNIKLNANSPSKKTTTRPNTSRINKPWRISHSPQQRNPNSKIPSPVREKLNRLPVNNKKFLDMESSKIPSPIRKATSSKMIHENKKLPKFKSLSLDDFELGKKLGKGKFGKVYCVRHRSTGYICALKVMEKEEIIKYNLQKQFRREVEIQTSLNHPNLTKSYGYFHDEKRVYLLMEYLVNGEMYKLLRLHGPFNDILASDYIYQIANALDYMHKKNIIHRDIKPENILIGFNNVIKLTDFGWSIINPPENRRKTVCGTIDYLSPEMVESREYDHTIDAWALGVLAFELLTGAPPFEEEMKDTTYKRIAALDIKMPSNISQDAQDLILKLLKYDPKDRMRLGDVKMHPWILRNKPFWENKRL
chain 2: MDWAIKAARKKTQRKPGSTRSIIETLDDLNNLTTDAHSEINQRLYESSEWLRNNVYMNTLKYEDKKMEESLISPENTHNKMDVEFPKMKGEYELSNSQNDAAKDVTKTPRNGLHNDKSITPKSLRRKEVTEGMNRFSIHDTNKSPVEPLNSVKVDANESEKSSPWSPYKVEKVLRESSKTSESPINTKRFDNQTWAAKEEMENEPILQALKKAESVKVKPPPNSGIARSQRRSNMFVPLPNKDPLIIQHIPPTKSSGSIPKVRTVKESPIAFKKKSTINSPAIRAVENSDTAGSTKASSVFDRLSSIPTKSFENKISRGNVGHKYSSSSIDLTGSPMKKVSQKFKSINSTDTDMQEALRDIFSVKNKITKNNSPKGKNSRKSSIPRFDKTSLKLTTHKKLAIIAEQKKKSKHSSDVHKTGSRPHSISPTKISVDSSSPSKEVKNYYQSPVRGYLRPTKASISPNKNKNLTTSQTPHRLKIKEKTLRKLSPNIADISKPESRKSKNYRLTNLQLLPPAEAERDDLKKKFDKRLSGIMRSQQEHHRRKQEKQKRMSHLEQDLKKQTSFSNDYKDIRLKESLAPFDNHVRDTINKNTAFSTDNILATINTVDHREIIGNVTPKIASVNDSLPEINTDSEDEASVTLAAWAKSPYLQEQLIRQQDINPQTIFGPIPPLHTDEIFPNPRLNRLKPRQIVPKRS
notes: Ipl1 (Aurora B homologue), S. cerevisiae; Sli15 (INCENP homologue), S. cerevisiae; the full-length form was preferentially pulled down; also called Ipl1/Sli15; Ipl1/Sli15 complex; source: E. coli BL21, purified (HisTrap, SEC on Superdex 200)

From PMC12170873, “The Spc105/Kre28 complex promotes mitotic error correction by outer kinetochore recruitment of Ipl1/Sli15” (The EMBO Journal, 2025)
